{
  "sequences": {"note": "Amino acid sequences for entries named in this document (tags omitted). A change or cut given only in a name is not applied to a line headed by its entry.", "UniProt P41240": "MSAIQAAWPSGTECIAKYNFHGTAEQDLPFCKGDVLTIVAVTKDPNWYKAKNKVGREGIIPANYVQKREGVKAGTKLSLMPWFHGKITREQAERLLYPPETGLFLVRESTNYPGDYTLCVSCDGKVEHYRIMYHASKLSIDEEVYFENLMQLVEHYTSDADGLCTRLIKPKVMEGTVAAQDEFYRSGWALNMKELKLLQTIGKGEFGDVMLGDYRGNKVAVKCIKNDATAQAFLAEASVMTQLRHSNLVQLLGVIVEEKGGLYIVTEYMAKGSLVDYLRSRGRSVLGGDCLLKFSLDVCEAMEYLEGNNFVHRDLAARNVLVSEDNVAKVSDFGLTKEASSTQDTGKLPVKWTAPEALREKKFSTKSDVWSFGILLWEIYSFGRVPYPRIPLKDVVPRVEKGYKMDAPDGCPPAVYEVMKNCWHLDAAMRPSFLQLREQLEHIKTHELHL", "UniProt P48729": "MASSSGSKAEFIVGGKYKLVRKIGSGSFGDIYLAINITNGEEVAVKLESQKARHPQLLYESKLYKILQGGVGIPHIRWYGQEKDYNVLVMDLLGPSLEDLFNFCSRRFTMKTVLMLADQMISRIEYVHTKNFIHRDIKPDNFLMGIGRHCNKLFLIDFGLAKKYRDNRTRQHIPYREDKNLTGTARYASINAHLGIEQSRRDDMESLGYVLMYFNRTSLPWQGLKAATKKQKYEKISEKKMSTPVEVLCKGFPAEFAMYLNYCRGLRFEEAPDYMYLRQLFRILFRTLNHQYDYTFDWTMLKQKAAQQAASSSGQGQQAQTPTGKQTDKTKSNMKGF"},
  "source": "the supplement of paper PMC12823440",
  "about": "“Inhibitors supercharge kinase turnover through native proteolytic circuits” (Nature, 2025)",
  "note": "Where a name gives a salt, the structure may show the parent alone. The list shows a part of the results. The calls rarely recur for the same compound in another form.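 Kinases, fused to nanoluciferase, were expressed in K562 cells; luminescence was measured every 4 h from 2 to 18 h as percent of control (DMSO = 100%, positive control = 0%). A time point is decreased if signal falls significantly (2 sigma). Hits were called by the authors by a rule that is not shown; the count of time points alone does not decide it.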",
  "data": [
    {"target": "CSK (UniProt P41240)", "assay": "number of time points (of 5) at which kinase-Nluc abundance scored as decreased, DMSO-normalised (count); higher = more persistent destabilization", "settings": "K562; 2-18 h", "values": [
      {"smiles": "OCCN(CCO)c1ccc(C(c2ccc(Cl)cc2)c2ccc(N(CCO)CCO)cc2)cc1", "note": "(10 µM)", "number of time points": 3},
      {"smiles": "CCOc1ccccc1C=C1C(=O)Nc2ccccc21", "note": "(10 µM)", "number of time points": 0},
      {"smiles": "COc1ncc(Nc2ncc([C@@H](C)N3CCN(S(C)(=O)=O)CC3)cc2-c2nc(C)nc(N)n2)cc1F", "note": "(10 µM)", "number of time points": 0},
      {"smiles": "O=C(CO)N1CCC(c2n[nH]c(-c3ccc(Cl)cc3)c2-c2ccncn2)CC1", "note": "(10 µM)", "number of time points": 0},
      {"smiles": "Cn1ncc(Cl)c1-c1cc(C(=O)N[C@H](CN)Cc2ccc(F)c(F)c2)sc1Cl", "note": "(10 µM)", "number of time points": 0},
      {"smiles": "O=c1ccc2ccc(O)c(O)c2o1", "note": "[Daphnetin] (10 µM)", "number of time points": 0},
      {"smiles": "O=C(Nc1ccc(Cl)c(Cl)c1)Nc1ccc2nnsc2c1", "note": "(10 µM)", "number of time points": 0},
      {"smiles": "O=C(O)c1cc(O)c2c(c1)[C@@H]([C@H]1c3cc(C(=O)O)cc(O)c3C(=O)c3c(O[C@@H]4O[C@H](CO)[C@@H](O)[C@H](O)[C@H]4O)cccc31)c1cccc(O[C@@H]3O[C@H](CO)[C@@H](O)[C@H](O)[C@H]3O)c1C2=O", "note": "[Sennoside B] (2.5 µM)", "number of time points": 0},
      {"smiles": "O=c1nc(N2CCOCC2)oc2c(-c3cccc4c3sc3ccccc34)cccc12", "note": "(10 µM)", "number of time points": 0},
      {"smiles": "O=C(Nc1cccc(-c2nncn2C2CC2)c1)c1cc(-n2cnc(C3CC3)c2)ccn1", "note": "(10 µM)", "number of time points": 0},
      {"smiles": "CSc1ccc(CN2CCCC(Nc3ccc4[nH]ncc4c3)C2)cc1", "note": "(stereo unspecified) [Rho-Kinase-IN-1] (10 µM)", "number of time points": 0},
      {"smiles": "Oc1ccccc1C(=S)N1CCCC1", "note": "(10 µM)", "number of time points": 0},
      {"smiles": "COC(=O)N[C@@H](C)CNc1nccc(-c2cn(C(C)C)nc2-c2cc(Cl)cc(NS(C)(=O)=O)c2F)n1", "note": "[Encorafenib] (10 µM)", "number of time points": 0},
      {"smiles": "C=CS(=O)(=O)c1ccc(Nc2nc(OCC3CCCCC3)c3[nH]cnc3n2)cc1", "note": "(2.5 µM)", "number of time points": 0},
      {"smiles": "O=c1[nH]ccc2cc(OC3CCNCC3)ccc12", "note": "(10 µM)", "number of time points": 0}
    ]},
    {"target": "CSNK1A1 (UniProt P48729)", "assay": "number of time points (of 5) at which kinase-Nluc abundance scored as decreased, DMSO-normalised (count); higher = more persistent destabilization", "settings": "K562; 2-18 h", "values": [
      {"smiles": "O=C1NC(=O)C(c2cn(-c3ccccc3)nc2-c2ccc(F)cc2)N1", "note": "(stereo unspecified) (10 µM)", "number of time points": 0},
      {"smiles": "O=[N+]([O-])c1ccc(Sc2cccc[n+]2[O-])c2nonc12", "note": "(2.5 µM)", "number of time points": 0},
      {"smiles": "COc1nc(-c2ccnc(NC(=O)C3CC3)c2)sc1C(N)=O", "note": "[GSK-3β inhibitor 2] (10 µM)", "number of time points": 0},
      {"smiles": "CCN1/C(=C/C(C)=O)Sc2ccc(OC)cc21", "note": "(10 µM)", "number of time points": 0},
      {"smiles": "Nc1cccc(S(=O)(=O)N2CCCN(S(=O)(=O)c3ccc4c(c3)OCCO4)CC2)c1", "note": "(10 µM)", "number of time points": 0},
      {"smiles": "Nc1ncc(-c2ccc(C(=O)N3CCNCC3)cc2)nc1-c1ccc(C(F)(F)F)cc1", "note": "(10 µM)", "number of time points": 0},
      {"smiles": "CC[C@H](Nc1ncnc2[nH]cnc12)c1oc2ccccc2c(=O)c1-c1cccc(F)c1", "note": "[Tenalisib] (10 µM)", "number of time points": 0},
      {"smiles": "CC(C)(O)[C@@H]1CC[C@](C)([C@H]2[C@@H](O)C[C@@]3(C)[C@@H]4C[C@H](O[C@@H]5O[C@H](CO)[C@@H](O)[C@H](O)[C@H]5O)[C@H]5C(C)(C)[C@@H](O[C@@H]6OC[C@@H](O)[C@H](O)[C@H]6O[C@@H]6O[C@H](CO)[C@@H](O)[C@H](O)[C@H]6O)CC[C@@]56C[C@@]46CC[C@]23C)O1", "note": "[Astragaloside VI] (10 µM)", "number of time points": 0},
      {"smiles": "CC(=O)Nc1nc2ccc(-c3cnc(C)c(NC(=O)OC4CCCCC4)c3)cc2s1", "note": "(10 µM)", "number of time points": 0},
      {"smiles": "COc1ccccc1/C=C1\\C(=O)Nc2ccccc21", "note": "(10 µM)", "number of time points": 0},
      {"smiles": "CC1(N)CCN(c2cnc3c(-c4cccc(Cl)c4Cl)[nH]nc3n2)CC1", "note": "(2.5 µM)", "number of time points": 0},
      {"smiles": "CC(C)C[C@H](NC(=O)[C@H](CCCCN)NC(=O)[C@H](CO)NC(=O)[C@@H](N)CC(C)C)C(N)=O", "note": "[LSKL, Inhibitor of Thrombospondin (TSP-1) (TFA)] (10 µM)", "number of time points": 0},
      {"smiles": "CN1CC[C@H](c2c(O)cc(O)c3c(=O)cc(-c4ccc(C(F)(F)F)cc4Cl)oc23)[C@H]1CO", "note": "[(2S,3R)-Voruciclib (hydrochloride)] (2.5 µM)", "number of time points": 0},
      {"smiles": "C[C@H]1[C@H](OC(=O)CCC(=O)O)O[C@@H]2O[C@@]3(C)CC[C@H]4[C@H](C)CC[C@@H]1[C@@]24OO3", "note": "[Artesunate] (2.5 µM)", "number of time points": 0},
      {"smiles": "c1ccc(-c2nn3c(c2-c2ccnc4cc(OCCN5CCOCC5)ccc24)CCC3)nc1", "note": "(10 µM)", "number of time points": 0},
      {"smiles": "COc1cc(N2CCC(N(C)C)CC2)ccc1Nc1ncc(Cl)c(Nc2ccccc2P(C)(C)=O)n1", "note": "(2.5 µM)", "number of time points": 0}
    ]}
  ]
}
